Source: the supplement of paper PMC3545927
This is a selection; strong and weak results do not stand in their true shares.

Amino acid sequences for entries named in this document (tags omitted).
furin, P09958, UniProt P09958, whole entry: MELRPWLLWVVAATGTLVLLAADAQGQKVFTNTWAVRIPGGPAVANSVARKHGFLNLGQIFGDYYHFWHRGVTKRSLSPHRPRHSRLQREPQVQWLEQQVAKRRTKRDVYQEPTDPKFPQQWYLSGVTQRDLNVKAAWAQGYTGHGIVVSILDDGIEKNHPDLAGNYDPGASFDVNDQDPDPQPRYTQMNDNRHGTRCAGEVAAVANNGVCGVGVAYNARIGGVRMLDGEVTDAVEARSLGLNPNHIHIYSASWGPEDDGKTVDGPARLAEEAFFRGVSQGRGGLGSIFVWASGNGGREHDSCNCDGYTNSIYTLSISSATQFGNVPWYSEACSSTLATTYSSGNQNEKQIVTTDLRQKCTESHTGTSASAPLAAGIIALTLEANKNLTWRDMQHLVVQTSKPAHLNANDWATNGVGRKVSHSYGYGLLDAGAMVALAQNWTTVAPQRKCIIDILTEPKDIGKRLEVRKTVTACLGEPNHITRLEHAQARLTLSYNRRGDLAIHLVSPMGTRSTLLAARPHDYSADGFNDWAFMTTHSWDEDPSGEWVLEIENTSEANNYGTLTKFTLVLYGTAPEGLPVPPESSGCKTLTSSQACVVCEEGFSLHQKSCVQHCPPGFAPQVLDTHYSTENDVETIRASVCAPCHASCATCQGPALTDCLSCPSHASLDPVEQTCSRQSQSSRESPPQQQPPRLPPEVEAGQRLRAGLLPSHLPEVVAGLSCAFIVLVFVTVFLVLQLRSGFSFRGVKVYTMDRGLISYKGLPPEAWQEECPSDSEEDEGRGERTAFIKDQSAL

B1: HC1218 (peptide)
chain: CAQVPSPEFFAGNASASA
B2: FS-1197 (peptide)
chain: CAGCQRCRRSAGNASASA
B3: FS-57 (peptide)
chain: CALRSRSGRSAGNASASA
B4: FS-834 (peptide)
chain: CANNHVYRRSAGNASASA
B5: FS-893 (peptide)
chain: CAVRGRVRRAAGNASASA
B6: HC2379 (peptide)
chain: CAEVPCHPPSAGNASASA
B7: HC37 (peptide)
chain: CAMEECYQHLAGNASASA
B8: FS-2676 (peptide)
chain: CARHHRDLDEAGNASASA
B9: FS-3122 (peptide)
chain: CARVPRSDGKAGNASASA
B10: FS-7 (peptide)
chain: CAAPRRLRRAAGNASASA
B11: HC112 (peptide)
chain: CAVVCCDMSYAGNASASA
B12: FS-1556 (peptide)
chain: CAQERRLKRIAGNASASA
B13: FS-1847 (peptide)
chain: CANFKRSVASAGNASASA
B14: FS-1097 (peptide)
chain: CATPRRYKRPAGNASASA
B15: FS-1142 (peptide)
chain: CANDDRSKRDAGNASASA
B16: FS-1898 (peptide)
chain: CARIKRQHSSAGNASASA
B17: FS-3145 (peptide)
chain: CAWVKRDTFCAGNASASA
B18: FS-2279 (peptide)
chain: CARLRRRREGAGNASASA
B19: FS-3073 (peptide)
chain: CARSARKSNFAGNASASA
B20: HC902 (peptide)
chain: CASRTQRRGRAGNASASA
B21: HC1824 (peptide)
chain: CAITPCSGSWAGNASASA
B22: FS-2602 (peptide)
chain: CARSKKAVWHAGNASASA
B23: HC863 (peptide)
chain: CAAKLVALGIAGNASASA
B24: FS-1269 (peptide)
chain: CARRRRRKKAAGNASASA

Target: furin, P09958
Test: furin cleavage Z-score vs untreated control; higher = more cleavage, active = 3.5 or more, inactive = 1 or less, 8 variable residues between constant flanks
How it was run: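 The cleavage Z-score was derived for purified furin acting on 8-mer peptides held on magnetic beads and fused to a cDNA oligonucleotide. Digests lasted 7.5, 15 or 30 min at 1:10 enzyme:substrate in 50 mM HEPES pH 7.5 with CaCl2 and NaCl. Sequencing counts of released DNA, log-transformed against furin-free reactions, were lowess-adjusted and scaled by median absolute deviation.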

| Sequence | furin cleavage Z-score (7.5 min) | furin cleavage Z-score (15 min) | furin cleavage Z-score (30 min) |
| --- | --- | --- | --- |
| B1 | inactive: -1.13 | inactive: -0.661 | inactive: 0.459 |
| B2 | 1.39 | 1.55 | 1.46 |
| B3 | active: 4.75 | active: 5.58 | active: 4.32 |
| B4 | – | active: 4.48 | – |
| B5 | 2.92 | 2.27 | 1.84 |
| B6 | 1.73 | 2.57 | 1.61 |
| B7 | 3.06 | 1.58 | 2.4 |
| B8 | 1.7 | 2.24 | 3.13 |
| B9 | 1.72 | 2.58 | 2.19 |
| B10 | active: 6.44 | active: 6.75 | active: 5.94 |
| B11 | 1.1 | 1.29 | 1.05 |
| B12 | 1.75 | 2.01 | 2.6 |
| B13 | inactive: 0.0489 | 1.11 | inactive: 0.734 |
| B14 | 2.44 | 3.16 | 1.19 |
| B15 | 2.32 | 2.58 | 2.7 |
| B16 | active: 4.55 | active: 5.06 | active: 4.01 |
| B17 | 2.23 | 1.42 | 1.2 |
| B18 | 1.83 | 1.88 | 1.54 |
| B19 | inactive: -1.18 | inactive: 0.463 | inactive: -0.0584 |
| B20 | 3 | 2.48 | 2.1 |
| B21 | inactive: -0.759 | inactive: -0.739 | inactive: -0.66 |
| B22 | 1.57 | 1.43 | 1.63 |
| B23 | inactive: 0.999 | inactive: -2.69 | inactive: 0.907 |
| B24 | 2.51 | 3.36 | 2.74 |

Random excerpt: two entries already listed.

| Sequence | furin cleavage Z-score (7.5 min) | furin cleavage Z-score (15 min) | furin cleavage Z-score (30 min) |
| --- | --- | --- | --- |
| B6 | 1.73 | 2.57 | 1.61 |
| B2 | 1.39 | 1.55 | 1.46 |
